According to PubChem BioAssay AID248 (DTP/NCI, 2004):
The list is a part of this screen's results and no random one: it gathers tests that were run many times, whatever their T/C, doses with no T/C, and many T/C values between a quarter and a half above the control. Further doses and runs are listed elsewhere. T/C gives the treated animals as a percentage of the vehicle group. Some entries give survivors of the animals treated and no T/C: the source files T/C as zero there, which appears to mark a toxic dose or a test without result, not a measured value. Some survivor counts are full or nearly so, which does not show that the dose was tolerated: survival well below the control is almost never listed, so the zero probably covers shortened survival too. Counts of survivors are from the toxicity check (mostly the fifth day) where no day follows; animals may have died later. Schedule codes are those of the source, read here as Q, the interval in days (D) or hours (H), X, the number of doses. Some entries were tested several times; the results are listed from low to high. For survival time, the PubChem record calls one and a half times the control and up active, and a quarter to a half above the control has no call in these data; cut-offs in other NCI protocols can differ. Some T/C values carry the count of animals alive at the toxicity check (mostly the fifth day); where none is given, no animal had died by that day.

System: L1210 leukemia ip in BDF1 mice, survival T/C
Assay: NCI In Vivo Anticancer Drug Screen. Data for tumor model L1210 Leukemia (intraperitoneal) in B6D2F1 (BDF1) mice
Details: T/C endpoint: mean survival time, higher T/C = longer survival
[1] = dose: 200.0 mg/kg/injection, schedule: Q04DX003 (ip), vehicle: saline
[2] = dose: 400.0 mg/kg/injection, schedule: Q04DX003 (ip), vehicle: saline
[3] = dose: 100.0 mg/kg/injection, schedule: Q04DX003 (ip), vehicle: saline with Tween-80
[4] = dose: 200.0 mg/kg/injection, schedule: Q04DX003 (ip), vehicle: saline with Tween-80
[5] = dose: 400.0 mg/kg/injection, schedule: Q04DX003 (ip), vehicle: saline with Tween-80

COC(=O)c1[nH]cnc1/N=N\N(CCF)CCF
T/C (dose: 6.0 mg/kg/injection, schedule: Q01DX009 (ip), vehicle: carboxymethylcellulose (CMC)): 130 % of control [5 of 6 alive] | T/C (dose: 8.4 mg/kg/injection, schedule: Q01DX009 (ip), vehicle: carboxymethylcellulose (CMC)): 133 % of control | T/C (dose: 12.0 mg/kg/injection, schedule: Q01DX009 (ip), vehicle: carboxymethylcellulose (CMC)): 146 % of control | T/C (dose: 18.0 mg/kg/injection, schedule: Q01DX001 (ip), vehicle: carboxymethylcellulose (CMC)): 125 % of control | T/C (dose: 20.0 mg/kg/injection, schedule: Q01DX001 (ip), vehicle: carboxymethylcellulose (CMC)): 126 % of control | T/C (dose: 24.0 mg/kg/injection, schedule: Q01DX009 (ip), vehicle: carboxymethylcellulose (CMC)): 145 % of control | survivor count (dose: 27.0 mg/kg/injection, schedule: Q01DX009 (ip), vehicle: carboxymethylcellulose (CMC)): 6 of 6 | T/C (dose: 35.0 mg/kg/injection, schedule: Q01DX001 (ip), vehicle: carboxymethylcellulose (CMC), evaluated on day 30): 127 % of control | T/C (dose: 35.0 mg/kg/injection, schedule: Q01DX001 (ip), vehicle: carboxymethylcellulose (CMC), run until all animals had died): 137 % of control | T/C (dose: 36.0 mg/kg/injection, schedule: Q01DX001 (ip), vehicle: carboxymethylcellulose (CMC)): 137 % of control | T/C (dose: 40.0 mg/kg/injection, schedule: Q01DX001 (ip), vehicle: carboxymethylcellulose (CMC)): 149 % of control | survivor count (dose: 40.0 mg/kg/injection, schedule: Q01DX009 (ip), vehicle: carboxymethylcellulose (CMC)): 4 of 6 | survivor count (dose: 53.0 mg/kg/injection, schedule: Q01DX001 (ip), vehicle: carboxymethylcellulose (CMC)): 3 of 6 | survivor count (dose: 80.0 mg/kg/injection, schedule: Q01DX001 (ip), vehicle: carboxymethylcellulose (CMC)): 0 of 6 and 2 of 6 | survivor count (dose: 120.0 mg/kg/injection, schedule: Q01DX001 (ip), vehicle: carboxymethylcellulose (CMC)): 0 of 5 and 0 of 6

c1ccc2c(c1)CCN(CCCCN1CCc3ccccc3C1)C2
survivor count [1]: 0 of 6 | survivor count [2]: 0 of 6

Cc1csc(C)n1.Cc1csc(C)n1.Cc1csc(C)n1.Cc1csc(C)n1.[Cl][Rh][Cl]
survivor count (dose: 50.0 mg/kg/injection, schedule: Q04DX003 (ip), vehicle: distilled water + Tween-80): 0 of 6 | survivor count (dose: 100.0 mg/kg/injection, schedule: Q04DX003 (ip), vehicle: distilled water + Tween-80): 0 of 6 | survivor count (dose: 200.0 mg/kg/injection, schedule: Q04DX003 (ip), vehicle: distilled water + Tween-80): 0 of 6

O=C1C2C(C(=O)N1c1ccc([N+](=O)[O-])cc1)C1c3ccccc3C2C2CCCCN21 (stereo not given)
survivor count (dose: 200.0 mg/kg/injection, schedule: Q01DX009 (ip), vehicle: saline): 0 of 6

Cn1nc(C(N)=O)c2c(N)ncnc21
survivor count (dose: 60.0 mg/kg/injection, schedule: Q01DX001 (ip), vehicle: carboxymethylcellulose (CMC)): 3 of 6

c1ccc(Sc2cccc3c(-c4ccccc4)c4cccc5c4c(c23)C[S+]5c2ccccc2)cc1 (stereo not given)
survivor count [3]: 5 of 6 | survivor count [4]: 0 of 6 | survivor count [5]: 0 of 6

O=C(COc1ccccc1)NCCBr
T/C (dose: 200.0 mg/kg/injection, schedule: Q04DX003 (ip), vehicle: Klucel (hydroxypropylcellulose) (HPC)): 126 % of control

NC(=O)c1[nH]cnc1NN=NCCCl
T/C (dose: 1.5 mg/kg/injection, schedule: Q01DX001 (ip), vehicle: saline with Tween-80): 138 % of control | T/C (dose: 3.0 mg/kg/injection, schedule: Q01DX001 (ip), vehicle: saline with Tween-80): 125 % of control | T/C (dose: 6.0 mg/kg/injection, schedule: Q01DX001 (ip), vehicle: saline with Tween-80): 148 % of control | T/C (dose: 6.25 mg/kg/injection, schedule: Q01DX001 (ip), vehicle: saline with Tween-80): 149 % of control | survivor count (dose: 50.0 mg/kg/injection, schedule: Q01DX009 (ip), vehicle: saline with Tween-80): 6 of 6 | survivor count (dose: 100.0 mg/kg/injection, schedule: Q01DX001 (ip), vehicle: saline with Tween-80): 4 of 6 | survivor count (dose: 200.0 mg/kg/injection, schedule: Q01DX001 (ip), vehicle: saline with Tween-80): 3 of 6 | survivor count (dose: 400.0 mg/kg/injection, schedule: Q01DX001 (ip), vehicle: saline with Tween-80): 0 of 6

Cc1cnc2no[n+]([O-])c2c1
survivor count (dose: 400.0 mg/kg/injection, schedule: Q04DX003 (ip), vehicle: Klucel (hydroxypropylcellulose) (HPC)): 0 of 6

C[N+](C)(C)c1ccc(/C=N\NC(=O)c2ccccc2)cc1
survivor count (dose: 100.0 mg/kg/injection, schedule: Q01DX009 (ip), vehicle: Klucel (hydroxypropylcellulose) (HPC)): 2 of 6 | survivor count (dose: 200.0 mg/kg/injection, schedule: Q01DX009 (ip), vehicle: Klucel (hydroxypropylcellulose) (HPC)): 0 of 6 | survivor count (dose: 400.0 mg/kg/injection, schedule: Q01DX009 (ip), vehicle: Klucel (hydroxypropylcellulose) (HPC)): 0 of 6

CCCCCCCCCCCC(=O)[O][Sn]([CH2]CCC)([CH2]CCC)[O]C(=O)CCCCCCCCCCC
survivor count (dose: 25.0 mg/kg/injection, schedule: Q04DX003 (ip), vehicle: saline with Tween-80): 1 of 3 | survivor count (dose: 50.0 mg/kg/injection, schedule: Q04DX003 (ip), vehicle: saline with Tween-80): 0 of 3 | survivor count [3]: 0 of 3 | survivor count [4]: 0 of 3 | survivor count [5]: 0 of 3

CC1=C(C)C(=O)c2c(OC(=O)c3ccccc3)ccc(OC(=O)c3ccccc3)c2C1=O
survivor count [1]: 6 of 6 | survivor count (dose: 400.0 mg/kg/injection, schedule: Q01DX009 (ip), vehicle: saline): 3 of 6

NC(Cc1ccccc1)C(=O)CCl (stereo not given)
survivor count (dose: 100.0 mg/kg/injection, schedule: Q04DX002 (ip), vehicle: saline): 1 of 3

CCCCCCCCC[As](=O)(O)O
survivor count (dose: 12.5 mg/kg/injection, schedule: Q01DX001 (ip), vehicle: carboxymethylcellulose (CMC)): 0 of 4 | survivor count (dose: 25.0 mg/kg/injection, schedule: Q01DX001 (ip), vehicle: carboxymethylcellulose (CMC)): 0 of 4 | survivor count (dose: 50.0 mg/kg/injection, schedule: Q01DX001 (ip), vehicle: carboxymethylcellulose (CMC)): 0 of 4

NC(=O)C(Br)CBr (stereo not given)
survivor count (dose: 100.0 mg/kg/injection, schedule: Q01DX009 (ip), vehicle: saline): 6 of 6 | survivor count [1]: 0 of 6 | survivor count [2]: 0 of 6

CCOC(=O)NCC[N+](C)(C)C
survivor count (dose: 100.0 mg/kg/injection, schedule: Q04DX003 (ip), vehicle: saline): 1 of 6 | survivor count [1]: 0 of 6 | survivor count [2]: 0 of 6
